The text below walks through data of paper PMC11736009.

In this experiment the target is full-length Diaph3 with the DD domain deleted (mouse) (UniProt Q9Z207). As to the kind of experiment: co-IP; HEK293T cells cotransfected, harvested 48 h later; lysate incubated with Flag beads at 4 °C overnight, washed 3 to 4 times with lysis buffer; Western blot.

Results are given in words; binding and its absence hold for the method and conditions named. In cells and extracts the contact can be indirect. Sequences can lack the tags named with a protein.

For DETGVMDSLLEALQSGAAFRDRRKRTPKLKD (domain or fragment, UniProt Q9Z207 1036-1066) [Diaph3 DAD-HA], the binding result was “no binding”.
